Construct, isoform or probe ends are uncertain for at least one entry. For some of these results: A negative result means that nothing was seen under these conditions.
What was measured:
GST-Rlf1001-1362 (mouse) = test: EMSA; settings: 0.5 and 5 uM protein, 5 nM probe, 10 uM ZnSO4; 10 mM HEPES pH 7.9, 30 mM NaCl, 1 mM MgCl2, 20 uM EDTA, 10 mM DTT, 10 uM ZnSO4, 67 ug/mL acetylated BSA, 4% Ficoll; on ice 30 min; recombinant protein; protein details: N-terminal GST (pGEX-6P); label: 5' FAM; single-stranded DNA
GST-Rlf431-513 (mouse) = test: EMSA; settings: 0.5 and 5 uM protein, 5 nM probe, 10 uM ZnSO4; 10 mM HEPES pH 7.9, 30 mM NaCl, 1 mM MgCl2, 20 uM EDTA, 10 mM DTT, 10 uM ZnSO4, 67 ug/mL acetylated BSA, 4% Ficoll; on ice 30 min; recombinant protein; protein details: N-terminal GST (pGEX-6P); label: 5' FAM; single-stranded DNA

“TATCCTACCCATTGGGCTCATCTGATCCATCCGGTCCCGTCCACTCGGCTATGTTATGCTGTATTGCAGTCGTGTCGCGTCGAGCTGCCCTAATCCCACC [PP4 pentaprobe]”: binds (GST-Rlf1001-1362 (mouse)); no binding (GST-Rlf431-513 (mouse)).
“TATCTTACTTTAGTTTCATTTAATTGTGTTGTACTCTCCTCTGCGTTCACTTAGCTTAACTTGGTTTGGCTTGATTTGACTTCAGTTGCGCTCTATTCTA [PP2 pentaprobe]”: binds (GST-Rlf1001-1362 (mouse)); no binding (GST-Rlf431-513 (mouse)).

From PMC4381397, “The recently identified modifier of murine metastable epialleles, Rearranged L-Myc Fusion, is involved in maintaining epigenetic marks at CpG island shores and enhancers”
